Reference: PubChem BioAssay AID504774 (Drosophila RNAi Screening Center, 2011)
The screen tested about 23,000 reagents; this is an unselected part of those with a known target gene and a result. 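Values are quantile-normalised luminescence on an arbitrary scale; higher means more cells surviving MMS.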 Further read-outs or replicates are left out here. Reagent sequences are not shown.

- Purpose: 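Genes required for cells to withstand methyl methanesulphonate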 (primary screen)
- System: Drosophila Kc167 cells
- Knock-down reagent: long dsRNA against Drosophila genes, about 0.25 µg dsRNA per well
- Duration: about 6 days: 3 days knock-down, then 3 days with or without MMS
- Treatment: methyl methanesulphonate 0.004% (w/v) for 3 days after knock-down
- Read-out: 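Viability in wells given MMS, read as ATP luminescence, normalised by quantiles plate by plate and averaged across replicates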
- Reading the numbers: mean viability with MMS: higher = more surviving cells after MMS

CG13784 [DRSC00974]
- mean viability with MMS: 3.66e6

CG13784 [DRSC02287]
- mean viability with MMS: 3.44e6

CG42525 [DRSC08026]
- mean viability with MMS: 3.48e6

CG9360 [DRSC20180]
- mean viability with MMS: 3.64e6

CG14153 [DRSC10155]
- mean viability with MMS: 3.66e6

CG14153 [DRSC22595]
- mean viability with MMS: 3.55e6

psidin (phagocyte signaling impaired) [DRSC15660]
- mean viability with MMS: 3.64e6

Rgk1 (retired record) [DRSC07343]
- mean viability with MMS: 3.61e6

Rgk1 (retired record) [DRSC07344]
- mean viability with MMS: 2.79e6

CG15170 [DRSC02471]
- mean viability with MMS: 3.61e6

ppk31 (pickpocket 31) [DRSC13811]
- mean viability with MMS: 3.64e6

MED18 (Mediator complex subunit 18) [DRSC18549]
- mean viability with MMS: 3.54e6

alpha-Man-Ic (alpha-Mannosidase class I c) [DRSC21674]
- mean viability with MMS: 3.62e6

Rexo5 (RNA exonuclease 5) [DRSC10981]
- mean viability with MMS: 3.43e6

CG12895 [DRSC06210]
- mean viability with MMS: 3.53e6

Ctps (CTP synthase) [DRSC09342]
- mean viability with MMS: 3.62e6

Ctps (CTP synthase) [DRSC10728]
- mean viability with MMS: 3.49e6

Ctps (CTP synthase) [DRSC10729]
- mean viability with MMS: 3.48e6

Irk3 (Inwardly rectifying potassium channel 3) [DRSC02047]
- mean viability with MMS: 3.59e6

Saysd1 (SAYSVFN motif domain containing 1) [DRSC14664]
- mean viability with MMS: 3.71e6

Rcd4 (Reduction in Cnn dots 4) [DRSC02597]
- mean viability with MMS: 3.60e6

14-3-3zeta [DRSC05028]
- mean viability with MMS: 3.53e6

CG11350 [DRSC08181]
- mean viability with MMS: 3.54e6

CG7166 [DRSC11809]
- mean viability with MMS: 3.68e6
